{"source": "patent US10624965B2", "about": "(SUSAVION BIOSCIENCES, INC., priority 2014, dated 2020)", "test": "peptide synthesis", "conditions": "whole synthesis", "note": "HELM strings list residues between dots; [ac] is acetyl, [am] amide, other brackets name non-standard units.", "data": [{"substance": "PEPTIDE1{V.Q.A.T.Q.S.N.Q.H.T.P.R.G.G.G.S.K.K.[am]}|PEPTIDE2{V.Q.A.T.Q.S.N.Q.H.T.P.R.G.G.G.S}|PEPTIDE3{V.Q.A.T.Q.S.N.Q.H.T.P.R.G.G.G.S.K}|PEPTIDE4{V.Q.A.T.Q.S.N.Q.H.T.P.R.G.G.G.S}$PEPTIDE1,PEPTIDE2,17:R3-16:R2|PEPTIDE1,PEPTIDE3,18:R3-17:R2|PEPTIDE3,PEPTIDE4,17:R3-16:R2$$$V2.0", "values": [{"measurement": "final HPLC purity", "value": ">95", "unit": "%"}]}]}
